Measurements published in article PMC3382170.
No constants are given. Whether binding was seen depends on the method and setting. In cells and extracts the contact can be indirect. Here binding means that the protein was enriched with, or labelled near, the bait; the list need not be complete.

Chains of the proteins cited; added tags and fusions are not shown.
UniProt P29341: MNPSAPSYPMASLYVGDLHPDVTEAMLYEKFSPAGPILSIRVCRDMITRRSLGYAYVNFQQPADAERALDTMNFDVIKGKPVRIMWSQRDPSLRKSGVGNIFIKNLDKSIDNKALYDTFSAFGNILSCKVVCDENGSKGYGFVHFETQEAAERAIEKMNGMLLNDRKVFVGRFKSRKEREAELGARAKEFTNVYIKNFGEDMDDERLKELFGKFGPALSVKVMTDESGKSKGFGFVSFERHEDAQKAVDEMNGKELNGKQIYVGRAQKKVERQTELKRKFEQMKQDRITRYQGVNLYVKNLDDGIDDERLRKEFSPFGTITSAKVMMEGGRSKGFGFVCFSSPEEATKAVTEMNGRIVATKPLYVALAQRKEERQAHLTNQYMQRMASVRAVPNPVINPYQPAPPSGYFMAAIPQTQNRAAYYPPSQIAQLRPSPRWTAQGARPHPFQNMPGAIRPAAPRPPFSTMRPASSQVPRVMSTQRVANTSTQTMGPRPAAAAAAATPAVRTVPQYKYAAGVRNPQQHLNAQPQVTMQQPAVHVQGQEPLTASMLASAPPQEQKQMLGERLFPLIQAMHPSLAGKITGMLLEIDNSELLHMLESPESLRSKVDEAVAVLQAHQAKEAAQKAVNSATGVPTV
UniProt P61407: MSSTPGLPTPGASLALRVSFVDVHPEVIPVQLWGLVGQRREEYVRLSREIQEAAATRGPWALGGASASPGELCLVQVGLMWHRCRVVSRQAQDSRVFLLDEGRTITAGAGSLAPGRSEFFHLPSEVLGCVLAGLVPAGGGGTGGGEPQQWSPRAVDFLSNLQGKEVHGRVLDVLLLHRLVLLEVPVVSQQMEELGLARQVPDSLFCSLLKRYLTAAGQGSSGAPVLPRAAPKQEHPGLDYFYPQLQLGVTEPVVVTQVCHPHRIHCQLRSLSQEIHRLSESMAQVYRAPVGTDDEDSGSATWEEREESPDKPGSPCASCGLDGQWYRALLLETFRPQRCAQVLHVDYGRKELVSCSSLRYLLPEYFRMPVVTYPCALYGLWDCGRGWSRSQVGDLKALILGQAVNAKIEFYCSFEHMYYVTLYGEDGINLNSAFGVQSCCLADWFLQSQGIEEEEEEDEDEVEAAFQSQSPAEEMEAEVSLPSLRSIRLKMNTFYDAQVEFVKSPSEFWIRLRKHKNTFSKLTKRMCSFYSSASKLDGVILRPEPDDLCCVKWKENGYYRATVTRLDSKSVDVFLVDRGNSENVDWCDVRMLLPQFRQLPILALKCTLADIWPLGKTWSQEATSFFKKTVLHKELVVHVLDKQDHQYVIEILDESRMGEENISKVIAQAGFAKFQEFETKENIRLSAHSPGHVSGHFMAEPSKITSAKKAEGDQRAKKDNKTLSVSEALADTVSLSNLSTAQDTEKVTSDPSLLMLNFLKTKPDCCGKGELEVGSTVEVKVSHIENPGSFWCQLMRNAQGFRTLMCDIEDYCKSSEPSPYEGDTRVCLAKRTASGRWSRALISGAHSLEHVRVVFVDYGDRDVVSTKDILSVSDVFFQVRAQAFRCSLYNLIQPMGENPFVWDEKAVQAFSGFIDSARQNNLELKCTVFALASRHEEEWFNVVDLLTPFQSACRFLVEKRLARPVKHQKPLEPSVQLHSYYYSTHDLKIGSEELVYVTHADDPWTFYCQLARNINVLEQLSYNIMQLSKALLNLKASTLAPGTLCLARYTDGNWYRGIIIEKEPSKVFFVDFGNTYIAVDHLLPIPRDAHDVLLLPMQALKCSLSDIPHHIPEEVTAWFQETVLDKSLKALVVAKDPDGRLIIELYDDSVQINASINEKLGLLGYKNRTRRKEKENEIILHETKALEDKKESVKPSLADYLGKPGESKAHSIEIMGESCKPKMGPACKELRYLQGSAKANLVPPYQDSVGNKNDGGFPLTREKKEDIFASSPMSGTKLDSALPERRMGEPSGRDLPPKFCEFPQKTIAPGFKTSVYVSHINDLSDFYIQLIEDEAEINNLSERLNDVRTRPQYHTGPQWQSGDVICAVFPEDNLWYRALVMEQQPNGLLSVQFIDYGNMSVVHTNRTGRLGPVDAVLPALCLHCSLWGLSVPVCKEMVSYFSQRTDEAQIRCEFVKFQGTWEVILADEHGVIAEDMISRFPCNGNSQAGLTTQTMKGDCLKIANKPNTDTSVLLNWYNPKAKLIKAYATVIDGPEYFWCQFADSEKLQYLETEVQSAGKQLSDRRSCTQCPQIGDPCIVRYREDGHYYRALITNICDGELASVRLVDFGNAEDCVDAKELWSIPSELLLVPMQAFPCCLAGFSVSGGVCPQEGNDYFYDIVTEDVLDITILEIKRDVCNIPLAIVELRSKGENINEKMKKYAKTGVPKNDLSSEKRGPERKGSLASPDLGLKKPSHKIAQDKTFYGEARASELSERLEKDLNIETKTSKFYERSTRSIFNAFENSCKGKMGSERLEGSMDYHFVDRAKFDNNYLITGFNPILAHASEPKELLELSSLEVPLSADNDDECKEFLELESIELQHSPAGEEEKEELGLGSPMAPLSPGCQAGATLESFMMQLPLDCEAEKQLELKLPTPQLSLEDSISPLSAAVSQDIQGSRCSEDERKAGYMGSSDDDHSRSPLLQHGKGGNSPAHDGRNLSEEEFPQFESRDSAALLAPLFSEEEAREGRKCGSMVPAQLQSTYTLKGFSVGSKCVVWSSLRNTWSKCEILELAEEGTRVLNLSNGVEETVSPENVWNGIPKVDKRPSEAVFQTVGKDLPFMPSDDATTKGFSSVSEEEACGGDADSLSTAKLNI
UniProt Q9JMB7: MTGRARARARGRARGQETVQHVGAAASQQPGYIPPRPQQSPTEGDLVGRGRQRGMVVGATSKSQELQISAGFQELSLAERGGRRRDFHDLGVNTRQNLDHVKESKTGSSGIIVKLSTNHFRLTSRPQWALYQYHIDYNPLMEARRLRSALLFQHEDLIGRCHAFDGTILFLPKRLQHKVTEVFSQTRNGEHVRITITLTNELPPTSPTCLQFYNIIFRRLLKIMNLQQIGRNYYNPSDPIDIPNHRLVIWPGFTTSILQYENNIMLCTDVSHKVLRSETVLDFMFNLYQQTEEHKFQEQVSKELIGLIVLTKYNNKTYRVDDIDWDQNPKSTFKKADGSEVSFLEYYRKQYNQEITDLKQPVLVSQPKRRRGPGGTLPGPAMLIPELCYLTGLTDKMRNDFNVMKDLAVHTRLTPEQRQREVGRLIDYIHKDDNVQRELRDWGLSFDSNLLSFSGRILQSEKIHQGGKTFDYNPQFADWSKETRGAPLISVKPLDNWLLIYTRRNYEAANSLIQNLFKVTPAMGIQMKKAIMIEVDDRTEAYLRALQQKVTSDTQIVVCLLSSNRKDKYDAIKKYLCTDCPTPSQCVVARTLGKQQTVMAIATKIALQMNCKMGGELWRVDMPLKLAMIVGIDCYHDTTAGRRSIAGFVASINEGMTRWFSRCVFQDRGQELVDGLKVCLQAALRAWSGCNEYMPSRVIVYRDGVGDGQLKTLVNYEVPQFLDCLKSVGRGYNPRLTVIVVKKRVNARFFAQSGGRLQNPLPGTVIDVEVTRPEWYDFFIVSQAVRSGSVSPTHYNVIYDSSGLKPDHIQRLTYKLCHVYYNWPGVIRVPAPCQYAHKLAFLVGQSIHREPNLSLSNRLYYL
UniProt Q60749: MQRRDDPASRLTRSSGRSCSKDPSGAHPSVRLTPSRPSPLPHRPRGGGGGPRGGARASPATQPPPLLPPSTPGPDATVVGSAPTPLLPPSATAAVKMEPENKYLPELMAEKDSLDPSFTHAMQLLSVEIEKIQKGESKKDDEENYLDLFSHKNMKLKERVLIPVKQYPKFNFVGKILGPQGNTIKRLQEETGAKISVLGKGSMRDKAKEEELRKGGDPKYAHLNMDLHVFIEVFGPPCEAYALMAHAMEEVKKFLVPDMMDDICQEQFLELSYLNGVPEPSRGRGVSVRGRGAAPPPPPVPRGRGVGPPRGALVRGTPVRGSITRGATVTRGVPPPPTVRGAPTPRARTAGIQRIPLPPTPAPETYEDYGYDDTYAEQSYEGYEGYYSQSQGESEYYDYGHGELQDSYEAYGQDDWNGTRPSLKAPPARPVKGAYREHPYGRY

How the values were obtained:
[1] = target: T1, MVH (Mouse VASA Homologue) (mouse (endogenous in male germ cells)) (UniProt Q61496); experiment: affinity purification with mass spectrometry; chromatoid bodies isolated from Sam68 wild-type and knockout mouse testes: cells cross-linked in 0.1% PFA, lysed in RIPA buffer and sonicated, pellet fraction immunoprecipitated with anti-MVH on Dynabeads protein G overnight at 4°C (anti-ACROSIN as control); cross-links reversed; LC-MS/MS
T1 sequence: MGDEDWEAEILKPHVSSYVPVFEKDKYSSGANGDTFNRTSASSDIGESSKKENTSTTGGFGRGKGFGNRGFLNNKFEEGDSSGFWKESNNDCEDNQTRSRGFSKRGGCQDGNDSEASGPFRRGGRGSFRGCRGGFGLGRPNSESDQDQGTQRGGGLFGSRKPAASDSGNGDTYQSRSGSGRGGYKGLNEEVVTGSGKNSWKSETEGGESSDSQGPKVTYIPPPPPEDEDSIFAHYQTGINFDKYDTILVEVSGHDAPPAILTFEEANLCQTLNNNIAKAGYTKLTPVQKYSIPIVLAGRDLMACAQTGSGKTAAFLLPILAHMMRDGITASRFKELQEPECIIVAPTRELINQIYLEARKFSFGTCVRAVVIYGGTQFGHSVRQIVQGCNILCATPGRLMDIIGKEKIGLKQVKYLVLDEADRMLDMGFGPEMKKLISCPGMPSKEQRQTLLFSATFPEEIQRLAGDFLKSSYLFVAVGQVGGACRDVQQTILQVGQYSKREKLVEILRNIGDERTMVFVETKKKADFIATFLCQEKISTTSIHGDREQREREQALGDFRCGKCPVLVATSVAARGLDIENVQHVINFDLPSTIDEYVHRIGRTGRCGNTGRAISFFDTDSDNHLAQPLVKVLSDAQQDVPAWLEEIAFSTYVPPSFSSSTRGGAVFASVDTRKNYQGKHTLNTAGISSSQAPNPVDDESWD

[2] = target: T2, MVH (Mouse VASA Homologue) (mouse (endogenous in male germ cells)), Q61496; experiment: as above; settings: remark: other sources report otherwise
T2 chain: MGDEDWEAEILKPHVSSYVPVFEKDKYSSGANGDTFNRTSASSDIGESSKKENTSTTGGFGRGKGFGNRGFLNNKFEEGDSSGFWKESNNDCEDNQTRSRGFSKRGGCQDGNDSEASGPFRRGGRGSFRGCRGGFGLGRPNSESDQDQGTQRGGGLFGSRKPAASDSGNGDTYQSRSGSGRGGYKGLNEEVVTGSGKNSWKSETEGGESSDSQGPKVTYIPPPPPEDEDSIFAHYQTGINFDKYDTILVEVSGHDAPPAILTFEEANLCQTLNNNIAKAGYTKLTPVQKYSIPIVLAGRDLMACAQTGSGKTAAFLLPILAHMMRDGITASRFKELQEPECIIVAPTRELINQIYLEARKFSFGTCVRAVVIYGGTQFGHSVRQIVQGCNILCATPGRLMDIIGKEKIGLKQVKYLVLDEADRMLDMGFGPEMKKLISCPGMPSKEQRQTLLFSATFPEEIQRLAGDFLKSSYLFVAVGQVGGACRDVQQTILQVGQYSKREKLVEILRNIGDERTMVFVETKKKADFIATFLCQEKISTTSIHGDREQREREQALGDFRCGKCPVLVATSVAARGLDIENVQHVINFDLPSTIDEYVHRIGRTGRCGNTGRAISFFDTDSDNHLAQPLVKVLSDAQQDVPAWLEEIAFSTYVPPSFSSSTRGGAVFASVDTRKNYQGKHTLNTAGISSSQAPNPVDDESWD

With PABPC1 (from UniProt P29341 1-636) the binding [1] was “binds”.

TDRD6 (from UniProt P61407 1-2134) was tested, and the binding [1] was “binds”.

For MIWI (from UniProt Q9JMB7 1-862), the binding [1] was “binds”.

In the case of SAM68 (from UniProt Q60749 1-443), the binding [1] is reported as “binds”.

B1: TDRD7 (protein, UniProt Q8K1H1 1-1086)
chain: MLEADLVSKMLRAVLQSHKNGIVLPRLQGEYRSLTGDWIPFKQLGYPTLEAYLRSVPAVVRIEASRSGEIVCYAVACTETARIAQLVARQRTSKRKIGRQINCQMRVKKAMPFFLEGKPKATLRQPGFASDYSISRKPNSALLRDRGSALGVKADVDMPPYPDTPVQRHASMSANSRFSPKSSLPASFQTHISRACPTEVNDNLNQTVEKPNITPPASYTNKMDEVQNRIKEILDKHNNGIWISKLPHFYKEFYKEDLNQGVLQQFEHWPHICTVEKPCGGGQDSLLYPARREQPLKSDQDPEKELPPPPPAPKQEVPSQGSPAVMPDVKEKVAELLGKYSSGLWASALPKAFEDMYKVKFPEDALKNLASLSDVCTINYISGNTQKAILYAKLPLPTDKILKDEGQAQGDFDIKSMIEQEYLQIEKNMAESADEFLEDITVPPLVIPTEASPSVLVVELSNTNDVVIRYVGKDYSAAQELMEDEMKEFYSKNPRVTPIQTVHVGQLLAVNAEEDAWLRAQIISTDENKIKVCYVDYGFCENIEKSKAYRLNPRFCSLSFQATKCKLAGLEVLNDDPDLVKAVESLTCGKIFAVEILDKSDVPLVVLYDTSGEDDININATCLKAICDRSLQVHLQVDAMYTNVKVTNICSDGTLYCQVPCKGLNKLNDLLHKTEDYFHCKHMTSEYFISLPFCGKICLFHCKGKWLRVEITNVHSSRALDVQFLDSGNSTSVKVSELREIPPRFLQEMLAIPPQAIKCCLADLPQSIGMWTPDAVLWLRDSVLNCSDCSIKVTKMDETKGVAYVYLFTPNNFPDPHRSINRQITNADLWKHQKDVFLSAVSTAASSPGNRNGGTPAPGSPAESLRKSHPEVIKKSVLDHTSSFSLEELPPPVHLSRSGEHMDVYVPVACHPGHFVIQPWQEIHKLEVLMEEMILYYSVSEERHIAVERDQVYAAKVENKWYRVLLKGILTNGLVSVYELDYGKHELVNIRKVQPLVDVFRKLPFQAVTAQLAGVKCSQWSEEASMVFRNHVEKKALVALVQTVVEHTNPWDRKVVLYLVDTSLPDTDTWIHDFMSQYLLELSKVN
With B1 the binding [1] was “binds”.

B2: DDX25, Q9QY15 1-484 (protein)
chain: MASLLWGGDAGAAESERLNSHFSNLVHPRKNLRGIRSTTVPNIDGSLNTEDDDDDEDDVVDLAANSLLNKLIRQSLIESSHRVEVLQKDPSSPLYSVKTFEELRLKEELLKGIYAMGFNRPSKIQEMALPMMLAHPPQNLIAQSQSGTGKTAAFVLAMLSRVNALELFPQCLCLAPTYELALQTGRVVERMGKFCVDVEVMYAIRGNRIPRGTEVTKQIIIGTPGTVLDWCFKRKLIDLTKIRVFVLDEADVMIDTQGFSDQSIRIQRALPSECQMLLFSATFEDSVWQFAERIIPDPNVIKLRKEELTLNNIRQYYVLCENRKGKYQALCNIYGGITIGQAIIFCQTRRNAKWLTVEMMQDGHQVSLLSGELTVEQRASIIQRFRDGKEKVLITTNVCARGIDVKQVTIVVNFDLPVNQSEEPDYETYLHRIGRTGRFGKKGLAFNMIEVDKLPLLMKIQDHFNSNIKQLDPEDMDEIEKIEY
In the case of B2, the binding [2] is reported as “binds”.

B3: MAEL (protein, UniProt Q8BVN9 1-434)
chain: MPNRRASRNAYYFFVQEKIPELRRRGLPVARVADAIPYCSADWALLREDEKEKYSEMAREWRAAQGKDSGPSEKQKLVSTPLRRPGMLVPKPSISPPDMSNLSIKSDQALLGGIFYFLNIFSHGELPPHCEQRFLPCEIGCVKYSLQEGIMADFHSFIHPGEIPRGFRFHCQAASDSSHKIPISNFEFGHDQATVLQNLYKFIHPNPGNWPPIYCKSDDRARVNWCLKRMERASEIRQDLELLTVEDLVVGIYQQKFLKEPSKTWVRSLLDVAMWDYSSNTRCKWHEENDILFCALAVCKKIAYCISNSLATLFGIQLTGAHVPLQDYEASNSVTPKMVVLDAGRYQKLRVESPGFCHFNSYNQEQRSNTSTGYYPSGVKISGPHSSVRGRGITRLLESISNSSNNIHRFSSCETSLSPYTPQKDGYKPFSSFS
With B3 the binding [1] was “binds”.

B4: TDRD1 (protein, UniProt Q99MV1 1-1172)
chain: MMPRNNLEASTCKMAEPFNFEKKESKPPPQDPLRSPVAQHNHPTFRLKSPENGNTKNNFLLCEQNKQYLASQEDSSVVSSNPAVVNGEVGGSKGDRKPPPTGNPVSPLSLGNSSPPNQVKTKPSSNVTPEKSKKSHKLFENALSVNNPALFNSLGPPLRSTTCHRCGLFGSLRCSQCKQTYYCSTACQRRDWSSHSTICRPVQQSLNKLEDNKSPFETKAIEVKSEVDCPPGVTKEITAGAERVMFSDLRSLQLKKTMEIKGTVTEFKHPSNFYIQLYSSEVLENMNQLSTSLKETYANVVPEDGYLPVKGEVCVAKYTVDQTWNRAIVQAVDVLQRKAHVLYIDYGNEEMIPIDSVHPLSRGLDLFPPSAIKCCVSGVIPTAGEWSEGCVAAVKALLFEQFCSVKVMDILEEEVLTCAVDLVLQSSGKQLDHVLVEMGYGVKPGEQSSTEQSVDHSALEDVGRVTVESKIVTDRNALIPKVLTLNVGDEFCGVVAHIQTPEDFFCQQLQSGHKLAELQESLSEYCGHVIPRSDFYPTIGDVCCAQFSEDDQWYRASVLAYASEESVLVGYVDYGNFEILSLKRLCPIIPKLLDLPMQALNCVLAGVKPSLGIWTPEAVCVMKEMVQNRMVTVRVVGMLGTRALVELIDKSVAPHVSASKALIDSGFAIKEKDVADKGSSMHTASVPLAIEGPAEALEWTWVEFTVDETVDVVVCMMYSPGEFYCHFLKDDALEKLDDLNQSLADYCAQKPPNGFKAEIGRPCCAFFSGDGNWYRALVKEILPSGNVKVHFVDYGNVEEVTTDQLQAILPQFLLLPFQGMQCWLVDIQPPNKHWTKEATARFQACVVGLKLQARVVEITANGVGVELTDLSTPYPKIISDVLIREQLVLRCGSPQDSLMSRPANQHKQIDSHRVQASPSAEQWKTMELPVNKTIAANVLEIISPALFYAIPSEMSENQEKLCVLAAELLEHCNAQKGQPAYRPRTGDACCAKYTNDDFWYRAIVLETSESDVKVLYADYGNIETLPLSRVQPIPASHLELPFQIIRCSLEGPMELNGSCSQLVMELLRNAMLNQSVVLSVKAISKNVHAVSVEKCSENGMINIAENLVMCGLAENLTSKRKSASTKEIPHSRDCCCTELQKQIEKHEQILLFLLNNPTNQSKFTEMKKLLRS
For B4, the binding [1] was “binds”.
